This is an account of results in patent publication US20040014151A1 (published 2004).

Chains of the proteins cited; added tags and fusions are not shown. Lines headed by an entry give the natural chain unless they say otherwise; changes in a name come on top. Residues count along the entry.
UniProt P07120: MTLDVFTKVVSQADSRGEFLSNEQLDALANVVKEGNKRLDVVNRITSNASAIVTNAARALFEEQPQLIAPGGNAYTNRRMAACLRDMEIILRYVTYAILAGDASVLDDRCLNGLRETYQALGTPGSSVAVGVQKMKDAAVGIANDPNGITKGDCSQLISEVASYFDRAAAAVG
native C-phycocyanin β subunit (holo-β): residues 2-173 of P07120
UniProt P07121: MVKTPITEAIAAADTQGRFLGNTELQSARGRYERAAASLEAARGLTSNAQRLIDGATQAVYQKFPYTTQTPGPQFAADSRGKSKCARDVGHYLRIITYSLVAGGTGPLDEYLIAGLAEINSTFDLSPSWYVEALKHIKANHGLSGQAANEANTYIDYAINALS
native C-phycocyanin α subunit (holo-α): residues 2-163 of P07121
UniProt P02701, residues 25-152: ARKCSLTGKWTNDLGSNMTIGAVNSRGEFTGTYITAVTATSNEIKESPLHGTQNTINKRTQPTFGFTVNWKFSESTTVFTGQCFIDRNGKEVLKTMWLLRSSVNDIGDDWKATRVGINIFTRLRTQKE
UniProt Q06881: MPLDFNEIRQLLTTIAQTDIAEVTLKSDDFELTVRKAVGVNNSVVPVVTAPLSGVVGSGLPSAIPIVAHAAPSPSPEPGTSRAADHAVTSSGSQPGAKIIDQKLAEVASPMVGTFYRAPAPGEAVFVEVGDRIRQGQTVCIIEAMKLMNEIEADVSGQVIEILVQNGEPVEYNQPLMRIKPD
UniProt P02185: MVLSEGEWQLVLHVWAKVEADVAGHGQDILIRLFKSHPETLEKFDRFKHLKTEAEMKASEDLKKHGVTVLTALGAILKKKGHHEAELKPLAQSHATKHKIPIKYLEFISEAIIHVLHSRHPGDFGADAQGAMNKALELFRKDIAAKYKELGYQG
UniProt Q00812: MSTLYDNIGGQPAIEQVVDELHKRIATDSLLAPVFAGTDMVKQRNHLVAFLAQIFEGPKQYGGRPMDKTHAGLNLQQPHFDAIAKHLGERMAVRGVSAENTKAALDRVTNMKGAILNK

In assay [1] the target is native C-phycocyanin β subunit (holo-β) (Anabaena sp. PCC7120) (UniProt P07120). Kind of assay: Ni2+-NTA copurification from Anabaena; SDS-PAGE.
Assay [2] shares this target. Kind of assay: IMAC copurification from Anabaena; SDS-PAGE.
Assay [3] has as its target native C-phycocyanin α subunit (holo-α) (Anabaena sp. PCC7120) (UniProt P07121). Kind of assay: IMAC copurification from Anabaena; SDS-PAGE.
The target of assay [4] is native C-phycocyanin β subunit (holo-β) (Anabaena sp. PCC7120) (UniProt P07120). Kind of assay: SEC-HPLC of Ni2+-NTA-purified An354; SDS-PAGE. A general note: SEC sorts molecules by how far they enter the pores of the column.
The target is the same in assay [5]. Kind of assay: SEC-HPLC of Ni2+-NTA-purified An349.
Assay [6] shares this target. Kind of assay: affinity copurification from Anabaena.
Assay [7] deals with avidin on monomeric avidin-coated beads (UniProt P02701). The assay can be described thus: avidin-coated beads; binding through biotin on BCCP114.
Assay [8] has as its target native C-phycocyanin β subunit (holo-β) (Anabaena sp. PCC7120) (UniProt P07120). Kind of assay: IMAC copurification from Anabaena.
In assay [9] the target is native C-phycocyanin α subunit (holo-α) (Anabaena sp. PCC7120) (UniProt P07121). The assay can be described thus: IMAC copurification from Anabaena.
For assay [10] the target is unchanged. The assay can be described thus: affinity copurification from Anabaena.
Assay [11] shares this target. Kind of assay: comparison of copurification results.
Assay [12] addresses avidin on monomeric avidin-coated beads (UniProt P02701). The assay can be described thus: monomeric avidin-coated beads; binding through biotin on BCCP114.
The target in assay [13] is native C-phycocyanin α subunit (holo-α) (Anabaena sp. PCC7120) (UniProt P07121). The assay can be described thus: assembly into phycobilisomes against loss of α on purification.
Assay [14] has the same target. Kind of assay: Ni2+-NTA copurification from Anabaena; SDS-PAGE.
The target in assay [15] is MalE-6×His-TEV-β (maltose-binding protein-phycocyanin β subunit fusion) (Anabaena sp. PCC7120) (UniProt P07120). Kind of assay: SEC-HPLC of An398.
Assay [16] concerns the target HTβ-BCCP114 subunit (6xHis-TEV-CpcB-TBN-BCCP114) (Anabaena sp. PCC7120) (UniProt P07120+Q06881). The assay can be described thus: SEC-HPLC of An353.
In assay [17] the target is native C-phycocyanin α subunit (holo-α) (Anabaena sp. PCC7120) (UniProt P07121). The assay can be described thus: SEC-HPLC of An353; SDS-PAGE.

No constants are given. Whether binding was seen depends on the method and setting. For some assays here: In cells and extracts the contact can be indirect. Some entries that bind do so weakly or less than the wild type.

Turning to “MalE-6×His-TEV-α (maltose-binding protein-phycocyanin α subunit fusion) (from UniProt P07121 1-163)”, the binding entry in assay [1] was “binds”.
As to “HTα-L11-β (6×His-tagged CpcA-L11-CpcB subunit-fusion phycocyanin) (from UniProt P07121 1-163; P07120 2-173)”, the binding result in [2] and in [3] was “binds” each time.
On to “HTβ-L11-α (6×His-tagged CpcB-L11-CpcA subunit-fusion phycocyanin) (from UniProt P07120 1-173; P07121 2-163)”, for which the binding result in assay [2] and in assay [3] was “binds” in each case.
On to “HT-pLI-α (6×His-GCN4pLI-TEV-CpcA) (from UniProt P07121 1-163)”, for which the binding result in assay [2] is listed as “binds”.
“SpA(DABC)-6×His-pII-TEV-CpcA subunit (from UniProt P38507 87-324; P07121 1-163)”: in [4], the binding entry is listed as “binds”.
“apo-HTα-BCCP114 (6xHis-TEV-CpcA-TBN-BCCP114) (from UniProt P07121 1-163; Q06881 69-182)”: in assay [2], the binding result was “binds”.
On to “SpA(DABC)-6×His-TEV-CpcA subunit (from UniProt P38507 87-324; P07121 1-163)”, for which the binding result in [5] was “binds”.
On to “SWMβ-6×His-TEV-CpcA (sperm whale myoglobin-phycocyanin α subunit fusion) (from UniProt P02185 1-154; P07121 1-163)”, for which the binding entry in [6] is given as “binds”.
In the case of “HTα-L11-β-BCCP114 (6xHis-TEV-CpcA-L11-CpcB-TBN-BCCP114) (from UniProt P07121 1-163; P07120 2-173; Q06881 69-182)”, the binding result in [7], in assay [8] and in [9] was “binds” each time.
With “GlbN-6×His-TEV-CpcA (cyanoglobin-phycocyanin α subunit fusion) (from UniProt Q00812 1-118; P07121 1-163)”, the binding result in assay [6] was “binds”.
As for “HT-pII-β-BCCP114 subunit (6xHis-GCN4pII-TEV-CpcB-TBN-BCCP114) (from UniProt P07120 1-173; Q06881 69-182)”, in assay [9], the binding result is given as “binds”.
For “GlbN-6×His-TEV-CpcB (cyanoglobin-phycocyanin β subunit fusion) (from UniProt Q00812 1-118; P07120 1-173)”, the binding result in assay [10] and in assay [11] was “binds” each time.
For “HT-pII-α-L11-β-BCCP114 (6xHis-GCN4pII-TEV-CpcA-L11-CpcB-TBN-BCCP114) (from UniProt P07121 1-163; P07120 2-173; Q06881 69-182)”, the binding entry in assay [12], in assay [8] and in [9] was “binds” throughout.
With “MalE-6×His-TEV-β (maltose-binding protein-phycocyanin β subunit fusion) (from UniProt P07120 1-173)”, the binding entry in assay [13], in assay [14] and in [15] was “binds” each time.
Turning to “HTβ-BCCP114 subunit (6xHis-TEV-CpcB-TBN-BCCP114) (from UniProt P07120 1-173; Q06881 69-182)”, the binding result in assay [16], in assay [17] and in [3] was “binds” in each case.
Consider “HT-pII-β-L11-α (6×His-GCN4pII-TEV-CpcB-L11-CpcA) (from UniProt P07120 1-173; P07121 2-163)”, for which the binding result in assay [2] and in [3] was “binds” throughout.
“HT-pII-α-BCCP114 (6xHis-GCN4pII-TEV-CpcA-TBN-BCCP114) (from UniProt P07121 1-163; Q06881 69-182)”: in [8], the binding entry is listed as “binds”.
With “HT-BTN-α (6xHis-BTN-TEV-CpcA) (from UniProt P07121 1-163)”, the binding entry in assay [2] is “binds”.
Still for that read-out and setting: to “HT-pII-α (6×His-GCN4pII-TEV-CpcA) (from UniProt P07121 1-163)” belongs “binds”.
For “SWMb-6×His-TEV-CpcB (sperm whale myoglobin-phycocyanin β subunit fusion) (from UniProt P02185 1-154; P07120 1-173)”, the binding result in assay [10] was “binds”.
